The assay concerns the target TEAD1-Flag (UniProt P28347). The assay is described as follows: co-IP; TEAD1-Flag or TEAD1-NCOA2-Flag expressed in HEK293T cells, immunoprecipitated with an anti-Flag antibody; endogenous YAP/TAZ detected by anti-YAP/TAZ antibodies.

Amino acid sequences for entries named in this document (tags omitted).
UniProt P28347: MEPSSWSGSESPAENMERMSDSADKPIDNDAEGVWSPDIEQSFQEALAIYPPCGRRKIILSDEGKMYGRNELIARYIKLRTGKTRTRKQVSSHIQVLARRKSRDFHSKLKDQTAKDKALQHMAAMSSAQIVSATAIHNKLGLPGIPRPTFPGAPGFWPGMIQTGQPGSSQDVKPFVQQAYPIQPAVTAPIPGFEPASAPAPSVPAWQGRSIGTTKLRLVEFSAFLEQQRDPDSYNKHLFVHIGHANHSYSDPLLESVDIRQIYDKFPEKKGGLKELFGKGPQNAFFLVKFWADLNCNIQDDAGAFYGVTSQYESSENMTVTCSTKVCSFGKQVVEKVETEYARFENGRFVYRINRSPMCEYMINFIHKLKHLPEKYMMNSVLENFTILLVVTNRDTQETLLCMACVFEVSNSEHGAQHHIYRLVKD
UniProt Q9GZV5: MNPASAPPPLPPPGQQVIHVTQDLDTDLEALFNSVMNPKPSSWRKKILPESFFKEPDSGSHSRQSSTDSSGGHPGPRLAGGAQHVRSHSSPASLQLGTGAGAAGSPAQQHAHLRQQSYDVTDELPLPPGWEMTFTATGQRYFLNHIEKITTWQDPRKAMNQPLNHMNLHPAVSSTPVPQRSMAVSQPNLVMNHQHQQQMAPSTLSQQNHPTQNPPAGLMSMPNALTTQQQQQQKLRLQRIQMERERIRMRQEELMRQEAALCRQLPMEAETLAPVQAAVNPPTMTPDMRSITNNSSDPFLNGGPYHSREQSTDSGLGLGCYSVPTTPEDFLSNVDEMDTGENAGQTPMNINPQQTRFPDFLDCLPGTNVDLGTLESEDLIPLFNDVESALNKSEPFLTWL

Results are given in words; binding and its absence hold for the method and conditions named. In cells and extracts the contact can be indirect. Some results given as binding are weak or reduced against the parent protein; the word gives no strength.

Consider “endogenous TAZ (from UniProt Q9GZV5 1-400)”, for which the binding entry was “binds”.

Values taken from article doi:10.1101/2024.05.01.592016.
